# Assay results published in the supplement of paper PMC12067093, “Discovery and optimisation of a covalent ligand for TRIM25 and its application to targeted protein ubiquitination” (Chemical Science, 2025).
# Amino acid sequences for entries named in this document (tags omitted). A change or cut given only in a name is not applied to a line headed by its entry.
# UniProt Q86Y39, whole entry, looked up: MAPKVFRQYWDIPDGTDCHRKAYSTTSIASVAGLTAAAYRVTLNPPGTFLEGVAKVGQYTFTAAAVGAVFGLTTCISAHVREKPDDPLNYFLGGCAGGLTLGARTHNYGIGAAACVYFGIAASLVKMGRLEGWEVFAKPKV
# UniProt O43678, whole entry, looked up: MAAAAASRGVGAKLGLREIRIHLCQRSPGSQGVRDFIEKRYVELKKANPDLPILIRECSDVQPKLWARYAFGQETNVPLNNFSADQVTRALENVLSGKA
# UniProt P08651, whole entry, looked up: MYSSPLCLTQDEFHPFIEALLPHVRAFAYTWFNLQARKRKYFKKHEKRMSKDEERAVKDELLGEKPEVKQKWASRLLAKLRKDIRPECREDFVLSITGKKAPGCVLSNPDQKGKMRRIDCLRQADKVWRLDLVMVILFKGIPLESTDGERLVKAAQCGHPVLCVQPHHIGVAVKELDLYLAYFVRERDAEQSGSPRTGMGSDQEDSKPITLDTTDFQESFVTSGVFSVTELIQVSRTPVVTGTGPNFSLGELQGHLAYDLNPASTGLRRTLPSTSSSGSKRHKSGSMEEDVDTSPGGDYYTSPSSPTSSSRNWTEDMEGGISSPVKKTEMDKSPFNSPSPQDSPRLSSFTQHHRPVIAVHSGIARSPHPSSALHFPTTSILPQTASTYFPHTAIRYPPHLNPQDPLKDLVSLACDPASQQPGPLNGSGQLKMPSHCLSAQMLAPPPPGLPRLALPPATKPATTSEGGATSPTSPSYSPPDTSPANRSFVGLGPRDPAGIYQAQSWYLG
# UniProt P51970, whole entry, looked up: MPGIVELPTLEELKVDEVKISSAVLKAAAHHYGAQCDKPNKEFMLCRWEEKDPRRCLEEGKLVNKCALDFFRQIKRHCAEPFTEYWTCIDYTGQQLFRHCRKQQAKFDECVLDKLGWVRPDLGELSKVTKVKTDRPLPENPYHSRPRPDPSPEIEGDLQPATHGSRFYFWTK
# UniProt O95644: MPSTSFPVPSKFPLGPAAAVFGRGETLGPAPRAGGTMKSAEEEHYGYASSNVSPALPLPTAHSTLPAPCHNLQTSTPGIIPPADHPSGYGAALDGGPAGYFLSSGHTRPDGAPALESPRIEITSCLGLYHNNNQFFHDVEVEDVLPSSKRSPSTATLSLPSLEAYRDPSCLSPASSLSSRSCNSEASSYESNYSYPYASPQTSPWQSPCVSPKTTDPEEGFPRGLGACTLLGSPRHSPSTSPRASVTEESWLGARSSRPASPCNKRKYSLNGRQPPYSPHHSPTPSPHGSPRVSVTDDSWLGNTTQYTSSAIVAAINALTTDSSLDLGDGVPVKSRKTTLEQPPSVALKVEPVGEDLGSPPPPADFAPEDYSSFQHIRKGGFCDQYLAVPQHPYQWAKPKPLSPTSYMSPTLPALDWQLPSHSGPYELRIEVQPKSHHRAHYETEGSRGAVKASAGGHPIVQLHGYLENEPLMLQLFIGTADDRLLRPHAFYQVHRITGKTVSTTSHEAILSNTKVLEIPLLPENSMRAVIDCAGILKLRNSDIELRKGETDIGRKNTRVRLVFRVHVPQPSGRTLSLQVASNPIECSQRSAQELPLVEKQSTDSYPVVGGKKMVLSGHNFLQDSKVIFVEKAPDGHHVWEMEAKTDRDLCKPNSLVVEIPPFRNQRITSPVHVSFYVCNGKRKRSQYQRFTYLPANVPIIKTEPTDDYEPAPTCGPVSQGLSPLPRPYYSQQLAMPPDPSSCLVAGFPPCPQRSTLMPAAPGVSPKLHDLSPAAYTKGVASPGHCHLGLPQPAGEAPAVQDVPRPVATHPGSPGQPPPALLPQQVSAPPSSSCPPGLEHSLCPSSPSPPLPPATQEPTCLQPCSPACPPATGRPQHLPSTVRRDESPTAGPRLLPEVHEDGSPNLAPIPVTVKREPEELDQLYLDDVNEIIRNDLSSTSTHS
# UniProt Q12968: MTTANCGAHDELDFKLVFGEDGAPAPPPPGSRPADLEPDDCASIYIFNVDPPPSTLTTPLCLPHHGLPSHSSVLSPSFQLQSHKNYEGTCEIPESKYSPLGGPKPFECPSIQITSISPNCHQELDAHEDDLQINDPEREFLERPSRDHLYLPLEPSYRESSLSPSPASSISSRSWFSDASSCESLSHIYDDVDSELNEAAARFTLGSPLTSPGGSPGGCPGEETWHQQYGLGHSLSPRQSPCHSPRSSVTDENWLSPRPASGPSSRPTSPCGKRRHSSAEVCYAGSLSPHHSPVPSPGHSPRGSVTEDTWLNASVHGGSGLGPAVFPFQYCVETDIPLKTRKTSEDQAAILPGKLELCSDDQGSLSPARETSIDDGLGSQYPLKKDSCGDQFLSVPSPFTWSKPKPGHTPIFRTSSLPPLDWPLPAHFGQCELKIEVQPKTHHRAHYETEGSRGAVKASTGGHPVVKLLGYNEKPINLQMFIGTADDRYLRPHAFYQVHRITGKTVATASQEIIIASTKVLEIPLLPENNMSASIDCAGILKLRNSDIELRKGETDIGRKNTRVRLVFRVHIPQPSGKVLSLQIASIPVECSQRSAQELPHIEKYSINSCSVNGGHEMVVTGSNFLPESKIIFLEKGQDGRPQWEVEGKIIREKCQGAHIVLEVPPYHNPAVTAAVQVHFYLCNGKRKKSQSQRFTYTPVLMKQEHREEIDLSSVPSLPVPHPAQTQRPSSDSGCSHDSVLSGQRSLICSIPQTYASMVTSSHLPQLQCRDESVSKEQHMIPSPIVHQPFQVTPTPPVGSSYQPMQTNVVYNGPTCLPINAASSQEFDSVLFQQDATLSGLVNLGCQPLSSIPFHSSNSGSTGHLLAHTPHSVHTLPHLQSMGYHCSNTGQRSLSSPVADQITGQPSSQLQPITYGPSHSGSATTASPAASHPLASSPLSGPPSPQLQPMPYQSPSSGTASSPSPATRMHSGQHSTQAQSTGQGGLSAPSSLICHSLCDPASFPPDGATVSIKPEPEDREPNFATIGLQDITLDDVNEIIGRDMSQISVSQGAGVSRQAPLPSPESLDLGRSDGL
# UniProt O75380, whole entry, looked up: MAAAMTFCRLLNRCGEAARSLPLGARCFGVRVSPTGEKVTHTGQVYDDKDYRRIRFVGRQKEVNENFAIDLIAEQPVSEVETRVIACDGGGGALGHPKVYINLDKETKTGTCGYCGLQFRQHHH
# UniProt O43920, whole entry, looked up: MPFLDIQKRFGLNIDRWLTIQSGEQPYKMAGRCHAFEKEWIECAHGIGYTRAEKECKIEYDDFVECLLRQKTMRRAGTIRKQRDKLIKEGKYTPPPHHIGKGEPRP
# UniProt Q12986: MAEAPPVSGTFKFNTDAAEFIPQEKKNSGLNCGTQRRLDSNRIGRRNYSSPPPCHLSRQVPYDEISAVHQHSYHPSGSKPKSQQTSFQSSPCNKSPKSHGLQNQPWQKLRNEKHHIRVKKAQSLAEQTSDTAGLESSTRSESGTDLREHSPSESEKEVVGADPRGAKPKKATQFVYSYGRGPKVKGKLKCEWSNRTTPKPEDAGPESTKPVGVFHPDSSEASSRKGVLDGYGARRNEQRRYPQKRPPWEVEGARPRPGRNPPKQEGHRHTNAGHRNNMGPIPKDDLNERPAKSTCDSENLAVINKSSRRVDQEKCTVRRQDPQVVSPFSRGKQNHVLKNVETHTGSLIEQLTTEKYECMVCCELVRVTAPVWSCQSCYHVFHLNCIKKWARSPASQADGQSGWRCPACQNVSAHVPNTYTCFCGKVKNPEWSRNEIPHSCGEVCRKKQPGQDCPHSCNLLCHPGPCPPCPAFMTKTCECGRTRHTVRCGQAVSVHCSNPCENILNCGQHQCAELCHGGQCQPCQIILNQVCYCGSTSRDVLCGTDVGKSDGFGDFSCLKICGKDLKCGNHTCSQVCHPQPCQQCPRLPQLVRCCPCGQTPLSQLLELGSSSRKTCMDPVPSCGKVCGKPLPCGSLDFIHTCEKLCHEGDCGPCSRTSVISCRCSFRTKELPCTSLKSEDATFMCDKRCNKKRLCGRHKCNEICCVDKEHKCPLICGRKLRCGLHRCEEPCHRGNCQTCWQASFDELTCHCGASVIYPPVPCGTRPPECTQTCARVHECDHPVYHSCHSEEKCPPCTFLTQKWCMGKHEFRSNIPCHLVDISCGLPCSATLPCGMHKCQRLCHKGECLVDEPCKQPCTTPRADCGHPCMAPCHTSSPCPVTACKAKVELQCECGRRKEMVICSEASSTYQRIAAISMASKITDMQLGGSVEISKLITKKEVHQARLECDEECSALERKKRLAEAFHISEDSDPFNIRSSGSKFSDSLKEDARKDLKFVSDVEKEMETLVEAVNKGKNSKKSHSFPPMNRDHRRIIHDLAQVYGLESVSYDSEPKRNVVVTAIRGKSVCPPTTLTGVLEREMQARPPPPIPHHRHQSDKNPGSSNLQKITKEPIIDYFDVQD
# UniProt O00217, whole entry: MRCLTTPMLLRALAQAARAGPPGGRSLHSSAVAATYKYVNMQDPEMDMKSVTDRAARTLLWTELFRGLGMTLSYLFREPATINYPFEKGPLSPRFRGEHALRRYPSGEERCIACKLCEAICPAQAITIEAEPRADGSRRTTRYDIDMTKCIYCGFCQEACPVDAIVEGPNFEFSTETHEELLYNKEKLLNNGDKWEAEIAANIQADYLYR
# UniProt P18615, whole entry: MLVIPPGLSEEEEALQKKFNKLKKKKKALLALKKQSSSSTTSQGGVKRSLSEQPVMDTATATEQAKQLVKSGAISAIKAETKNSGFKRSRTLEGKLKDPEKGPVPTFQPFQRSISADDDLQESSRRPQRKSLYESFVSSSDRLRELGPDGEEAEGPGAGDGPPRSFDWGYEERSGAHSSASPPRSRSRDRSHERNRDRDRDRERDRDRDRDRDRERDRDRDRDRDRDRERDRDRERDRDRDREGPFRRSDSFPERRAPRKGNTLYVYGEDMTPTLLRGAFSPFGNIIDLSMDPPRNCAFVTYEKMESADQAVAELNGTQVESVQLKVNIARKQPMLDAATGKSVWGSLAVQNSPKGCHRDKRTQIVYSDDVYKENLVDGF
# UniProt Q9NX24: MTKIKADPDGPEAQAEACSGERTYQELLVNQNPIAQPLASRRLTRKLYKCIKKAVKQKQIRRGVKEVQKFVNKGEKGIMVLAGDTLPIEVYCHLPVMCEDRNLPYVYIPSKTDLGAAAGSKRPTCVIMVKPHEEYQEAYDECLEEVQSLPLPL
# UniProt Q9UFN0: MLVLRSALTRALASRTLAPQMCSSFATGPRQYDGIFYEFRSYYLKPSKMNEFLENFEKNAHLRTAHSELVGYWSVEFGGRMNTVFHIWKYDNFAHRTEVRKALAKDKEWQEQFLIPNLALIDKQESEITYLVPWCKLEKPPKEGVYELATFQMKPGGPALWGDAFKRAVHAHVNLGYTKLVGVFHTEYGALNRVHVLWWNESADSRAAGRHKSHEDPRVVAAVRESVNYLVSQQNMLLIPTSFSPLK
# UniProt P28331, whole entry, looked up: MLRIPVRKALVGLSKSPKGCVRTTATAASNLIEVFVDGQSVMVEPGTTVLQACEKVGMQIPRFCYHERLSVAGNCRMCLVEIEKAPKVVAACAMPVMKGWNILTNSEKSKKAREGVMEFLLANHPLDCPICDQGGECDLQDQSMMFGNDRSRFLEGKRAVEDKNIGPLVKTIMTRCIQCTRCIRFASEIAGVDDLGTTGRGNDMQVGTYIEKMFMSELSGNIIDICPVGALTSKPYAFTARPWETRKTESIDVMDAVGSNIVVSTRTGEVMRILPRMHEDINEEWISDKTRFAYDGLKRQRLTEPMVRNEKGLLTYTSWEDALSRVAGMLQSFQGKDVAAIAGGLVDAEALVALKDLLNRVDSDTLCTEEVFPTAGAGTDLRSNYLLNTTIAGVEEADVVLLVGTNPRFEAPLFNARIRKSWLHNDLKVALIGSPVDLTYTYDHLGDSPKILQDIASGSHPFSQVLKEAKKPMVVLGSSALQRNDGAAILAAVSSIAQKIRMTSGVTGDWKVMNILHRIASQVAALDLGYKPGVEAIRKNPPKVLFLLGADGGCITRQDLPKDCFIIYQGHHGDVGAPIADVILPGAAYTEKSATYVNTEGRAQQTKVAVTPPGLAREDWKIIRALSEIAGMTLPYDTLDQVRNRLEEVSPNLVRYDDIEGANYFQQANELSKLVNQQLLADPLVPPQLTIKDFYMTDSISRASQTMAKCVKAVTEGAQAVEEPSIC
# UniProt O00221: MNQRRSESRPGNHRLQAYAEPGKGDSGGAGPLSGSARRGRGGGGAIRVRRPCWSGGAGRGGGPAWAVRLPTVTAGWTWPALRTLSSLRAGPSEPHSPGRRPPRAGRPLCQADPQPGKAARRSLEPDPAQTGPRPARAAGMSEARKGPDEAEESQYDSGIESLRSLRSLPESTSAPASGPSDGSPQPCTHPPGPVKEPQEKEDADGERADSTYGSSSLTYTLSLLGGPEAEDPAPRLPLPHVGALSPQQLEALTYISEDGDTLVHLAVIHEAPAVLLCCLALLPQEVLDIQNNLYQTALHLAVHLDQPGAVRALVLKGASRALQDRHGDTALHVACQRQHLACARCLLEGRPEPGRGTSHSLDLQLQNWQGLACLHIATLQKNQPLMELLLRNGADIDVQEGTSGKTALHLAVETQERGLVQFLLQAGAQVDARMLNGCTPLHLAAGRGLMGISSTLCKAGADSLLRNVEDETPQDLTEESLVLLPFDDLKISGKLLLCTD
# The list shows a part of the results.
# Compound: Cc1cc(ccc1-c1ccccc1)C(=O)N1CCCN(CC1)C(=O)CCl [compound 10]
# Experiment: probe-labelled cysteine peptide fold change vs DMSO (competition) (log2 fold change); higher = less target engagement (more negative = stronger competition)
# Details: THP-1, incubation time: 4 h
# 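Further: competitive profiling in live THP-1 cells: cysteine peptides tagged with an iodoacetamide desthiobiotin (IA-DTB) probe, intensity after compound treatment relative to DMSO-treated cells.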
Target,probe-labelled cysteine peptide fold change (10 µM),probe-labelled cysteine peptide fold change (50 µM)
NDUFA11_Q86Y39_18_QYWDIPDGTDCHRK (UniProt Q86Y39),-0.216,-0.195
NELFB_Q8WX92_115_MPSLQPVVMCVMK (UniProt Q8WX92),-0.0237,-0.514
NDUFA2_O43678_24_IHLCQR (UniProt O43678),-0.0204,-0.32
NIPBL_Q6KC79_573_QCNDAPVSVLQEDIVGSLK (UniProt Q6KC79),-0.146,-0.224
NEU1_Q99519_218_LIVCGHGTLER (UniProt Q99519),0.0515,-0.0365
NEURL4_Q96JN8_527_LLFHPNCGQK (UniProt Q96JN8),-0.332,-0.0952
NFIC_P08651_104_KAPGCVLSNPDQK (UniProt P08651),-0.162,-0.158
NEK7_Q8TDX7_146_YFVQLCSALEHMHSR (UniProt Q8TDX7),0.0437,0.15
NDUFA8_P51970_66_CALDFFR (UniProt P51970),-0.175,0.0473
NFATC1_O95644_383_GGFCDQYLAVPQHPYQWAK (UniProt O95644),-0.223,-0.405
NIPBL_Q6KC79_2151_SLFTVGALCR (UniProt Q6KC79),0.186,-0.074
NFATC3_Q12968_6_TTANCGAHDELDFK (UniProt Q12968),-0.185,-0.196
NDUFS6_O75380_112_TGTCGYCGLQFR (UniProt O75380),-0.219,-0.308
NISCH_Q9Y2I1_185_TDLGHILDFTCR (UniProt Q9Y2I1),0.0772,0.109
NDUFS5_O43920_43_EWIECAHGIGYTR (UniProt O43920),-0.0931,0.0363
NFX1_Q12986_684_SEDATFMCDK (UniProt Q12986),0.0195,-0.433
NDUFS8_O00217_121_LCEAICPAQAITIEAEPR (UniProt O00217),0.428,0.213

Target,probe-labelled cysteine peptide fold change (10 µM),probe-labelled cysteine peptide fold change (50 µM)
NCOA5_Q9HCD5_200_FDAERPVDCSVIVVNK (UniProt Q9HCD5),0.149,0.263
NELFE_P18615_297_NCAFVTYEK (UniProt P18615),0.0725,-0.0683
NID1_P14543_1219_LYGITTALSQCPQGHNYCSVNNGGCTHLCLATPGSR (UniProt P14543),-0.321,-0.712
NHP2_Q9NX24_18_ADPDGPEAQAEACSGER (UniProt Q9NX24),-0.335,-0.124
NIPSNAP1_Q9BPW8_106_LHLDEDYPCSLVGNWNTWYGEQDQAVHLWR (UniProt Q9BPW8),-0.0425,0.0951
NIPSNAP3A_Q9UFN0_135_QESEITYLVPWCK (UniProt Q9UFN0),0.151,0.389
NIPBL_Q6KC79_52_IAEEVNCLLACRDDNLVSQLVHSLNQVSTDHIELK (UniProt Q6KC79),0.0486,-0.915
NDUFS1_P28331_78_MCLVEIEK (UniProt P28331),-0.319,-0.624
NDRG1_Q92597_289_MADCGGLPQISQPAK (UniProt Q92597),-0.106,-0.0404
NIPBL_Q6KC79_1971_ACTQLVDNLVEHILK (UniProt Q6KC79),0.351,0.433
NFX1_Q12986_572_CGNHTCSQVCHPQPCQQCPR (UniProt Q12986),0.172,0.183
NDUFS1_P28331_64_FCYHER (UniProt P28331),-0.0829,-0.202
NCKIPSD_Q9NZQ3_376_DLSMALPSGQVCHDQQR (UniProt Q9NZQ3),0.189,-0.0364
NHLRC2_Q8NBF2_716_AILFSQPLQITDTQQGCIAPVELR (UniProt Q8NBF2),0.0495,0.165
NFKBIE_O00221_335_HGDTALHVACQR (UniProt O00221),0.0998,-0.158
NFRKB_Q6P4R8_17_MDSLDHMLTDPLELGPCGDGHGTR (UniProt Q6P4R8),-0.564,-0.686
